Source: patent US20030013690A1, “Increasing phosphorus uptake from the gut of dairy cows by supplementing 1alpha-hydroxylated vitamin D compounds” (priority 2001, published 2003)

Columns and labels:
lactating dairy cows [1] = assay: Dairy cow efficacy trial: milk yield and milk composition; type: in vivo
Text: (§1) Eight multiparous lactating dairy cows (about 150 days in milk at start of the experiment) were blocked into two groups according to milk yield. Cows in each block were assigned randomly to four different treatments. The experimental design was a 4×4 Latin Square. Each period was four weeks in length. The first three weeks were used as an adaptation period, and measurements were taken during the last week of each period.
(§2) The four treatments were:
(§3) 1) High P diet. Dietary P at 0.47% (DM basis)
(§4) 2) Diet 1 plus 1-α-OHD3 (75 μg/cow/day)
(§5) 3) Low P diet. Dietary P at 0.35% (DM basis)
(§6) 4) Diet 3 plus 1-α-OHD3 (75 μg/cow/day).
Cows were weighed two days in a row before the trial started and two days in a row when it finished. Daily milk weights were recorded. All cows were injected with bovine somatotropin (Posilac®). Blood samples were collected on the last day of weeks 1, 2, and 3 of each period. During week 4, blood samples were obtained on each of the last three days. Blood was obtained 5 hours after feeding from the coccygeal vein or artery in a gel and clot co-activator vacutainer. Samples were centrifuged the next day to separate the serum. Inorganic phosphorus and calcium analyses were performed on serum samples by Marshfield Laboratories, Marshfield, Wis.
During the last two days of each period, six urine samples were collected at 8 am, 4 pm, and 11 pm on the first day and 12 noon, 8 pm, and 6 am on the second day. Urine samples were then composited for phosphorus, calcium, and creatinine analysis. Creatinine was measured to enable an estimate of urine output. Milk samples were obtained during four days of each period. The milk sample was split; one-half was mixed with a preservative, and the other half was refrigerated without a preservative. The samples with preservative were analyzed for milk composition by Wisconsin Ag Source Milk Analysis Laboratory (Menomonie, Wis.), and the samples without preservative were composited according to milk yield and analyzed for mineral composition in the Soil and Plant Analysis Laboratory, Department of Soil Science, University of Wisconsin-Madison.

lactating dairy cows [2] = assay: Dairy cow efficacy trial: feed intake, fecal P excretion, P utilization; type: in vivo
Text: as §1, §2, §3, §4, §5, §6
The diets (Table 1) were fed ad libitum as a total mixed ration once daily. The cows were housed in individual tie stalls. Daily feed offered and refused was recorded for individual cows. Feed refusals were restricted to 10% of intake on an as-fed basis. Daily samples of silage and refusals were composited weekly for chemical analysis. Samples of individual feed ingredients were collected once weekly. The dry matter content of feed ingredients was determined by oven drying at 60° C. for 48 hr. Diet formulations were adjusted weekly, if necessary, to account for changes in dry matter content of diet ingredients. All of the feed ingredients were analyzed for chemical composition. Alfalfa and corn silage were analyzed weekly for neutral detergent fiber (NDF), acid detergent fiber (ADF), and crude protein (CP). High moisture ear corn (HMEC), soybean meal (SBM), roasted soybean meal (RSB), and blood meal (BM) were composited every four weeks (one sample per period) and analyzed for CP.
Feed DM digestibility was determined using Yb as an external marker. A Yb solution, prepared by dissolving 2.24 g of YbCl3 (1 g of Yb) in 30 ml of water was sprayed onto 500 g of alfalfa silage (DM basis). The Yb-marked alfalfa silage was mixed into the total mixed ration to give 40 mg of Yb/kg of dietary DM. The total mixed ration labeled with Yb was fed for nine days. During the last two days of Yb feeding (last two days of each period), eight fecal grab samples were collected from each cow at 7 am, 12 noon, 6 pm, and 11 pm on the first day and at 9 am, 3 pm, 9 pm, and 5 am on the second day. Fecal samples were dried at 60° C. for 72 h and ground through a 2-mm Wiley mill screen. Fecal samples were dry-ashed in duplicate (Combs and Satter, 1992). During the last four days of each period, feed refusals for each cow were collected and composited into one sample per cow per period. These samples were dry-ashed in the same way as feces, and analyzed for Yb. Concentrations of Yb (ppm) in feed, feed refusals, and fecal samples were determined by direct current plasma spectroscopy [(Combs and Satter, 1992); Spectra Metrics, Inc., subsidiary of Beckman Instruments, Inc., Andover, Mass.]. The DM digestibility (percentage) for individual cows was calculated as follows: DM digestibility (%)=(1-concentration of Yb in DM consumed/average concentration of Yb in each cow's fecal samples)100. Digestibility of dietary P in different treatments was calculated using P input-output data.

[3] = treatment 2: high P diet (0.47% P) plus 75 μg/cow/day
[4] = treatment 4: low P diet (0.35% P) plus 75 μg/cow/day

`C=C1/C(=C\C=C2/CCC[C@]3(C)[C@@H]([C@H](C)CCCC(C)C)CC[C@@H]23)C[C@@H](O)C[C@@H]1O` [1-α-OHD3, 1α-hydroxyvitamin D3] was tested, and the “Effect on milk lactose” value (lactating dairy cows [1]; 75 μg/cow/day) was “increased slightly”, the “Effect on milk potassium” value (lactating dairy cows [1]; 75 μg/cow/day) was “decreased” and the “Effect on milk protein” value (lactating dairy cows [1]; 75 μg/cow/day) was “may have been decreased slightly”. For the same compound, the “Milk P” value (lactating dairy cows [1]; [3]) was 38.2 g/day, the “Milk P (phosphorus)” value (lactating dairy cows [1]; [3]) was 1034 ppm and the Milk calcium (lactating dairy cows [1]; [3]) was 1238 ppm. It also gave a Milk lactose (lactating dairy cows [1]; [3]) of 4.98%, a Milk magnesium (lactating dairy cows [1]; [3]) of 108 ppm and a Milk potassium (lactating dairy cows [1]; [3]) of 1595 ppm. The Milk protein (lactating dairy cows [1]; [3]) was 3.28%, the Milkfat (lactating dairy cows [1]; [3]) was 3.45% and the “Milk P” value (lactating dairy cows [1]; [4]) was 38.4 g/day. For the same compound, the “Milk P (phosphorus)” value (lactating dairy cows [1]; [4]) was 1021 ppm, the Milk calcium (lactating dairy cows [1]; [4]) was 1248 ppm and the Milk lactose (lactating dairy cows [1]; [4]) was 4.93%. For the same compound, the Milk magnesium (lactating dairy cows [1]; [4]) was 105 ppm, the Milk potassium (lactating dairy cows [1]; [4]) was 1559 ppm and the Milk protein (lactating dairy cows [1]; [4]) was 3.31%. For the same compound, the Milkfat (lactating dairy cows [1]; [4]) was 3.54%, the “Effect on feed consumption (DM intake)” value (lactating dairy cows [2]; 75 μg daily in the cows' diets) was “not affected” and the Dry matter intake (lactating dairy cows [2]; [3]) was 23.8 kg/day. For the same compound, the “Fecal DM” value (lactating dairy cows [2]; [3]) was 7.2 kg/day, the Dry matter intake (lactating dairy cows [2]; [4]) was 24.1 kg/day and the “Fecal DM” value (lactating dairy cows [2]; [4]) was 7.2 kg/day.
